According to patent US20090035818A1:
Results are given in words; binding and its absence hold for the method and conditions named. Some results given as binding are weak or reduced against the parent protein; the word gives no strength.

Sequences of proteins named here, by UniProt entry; tags and fusion partners are left off. Residues count along the entry.
UniProt P01267, residues 20-2769: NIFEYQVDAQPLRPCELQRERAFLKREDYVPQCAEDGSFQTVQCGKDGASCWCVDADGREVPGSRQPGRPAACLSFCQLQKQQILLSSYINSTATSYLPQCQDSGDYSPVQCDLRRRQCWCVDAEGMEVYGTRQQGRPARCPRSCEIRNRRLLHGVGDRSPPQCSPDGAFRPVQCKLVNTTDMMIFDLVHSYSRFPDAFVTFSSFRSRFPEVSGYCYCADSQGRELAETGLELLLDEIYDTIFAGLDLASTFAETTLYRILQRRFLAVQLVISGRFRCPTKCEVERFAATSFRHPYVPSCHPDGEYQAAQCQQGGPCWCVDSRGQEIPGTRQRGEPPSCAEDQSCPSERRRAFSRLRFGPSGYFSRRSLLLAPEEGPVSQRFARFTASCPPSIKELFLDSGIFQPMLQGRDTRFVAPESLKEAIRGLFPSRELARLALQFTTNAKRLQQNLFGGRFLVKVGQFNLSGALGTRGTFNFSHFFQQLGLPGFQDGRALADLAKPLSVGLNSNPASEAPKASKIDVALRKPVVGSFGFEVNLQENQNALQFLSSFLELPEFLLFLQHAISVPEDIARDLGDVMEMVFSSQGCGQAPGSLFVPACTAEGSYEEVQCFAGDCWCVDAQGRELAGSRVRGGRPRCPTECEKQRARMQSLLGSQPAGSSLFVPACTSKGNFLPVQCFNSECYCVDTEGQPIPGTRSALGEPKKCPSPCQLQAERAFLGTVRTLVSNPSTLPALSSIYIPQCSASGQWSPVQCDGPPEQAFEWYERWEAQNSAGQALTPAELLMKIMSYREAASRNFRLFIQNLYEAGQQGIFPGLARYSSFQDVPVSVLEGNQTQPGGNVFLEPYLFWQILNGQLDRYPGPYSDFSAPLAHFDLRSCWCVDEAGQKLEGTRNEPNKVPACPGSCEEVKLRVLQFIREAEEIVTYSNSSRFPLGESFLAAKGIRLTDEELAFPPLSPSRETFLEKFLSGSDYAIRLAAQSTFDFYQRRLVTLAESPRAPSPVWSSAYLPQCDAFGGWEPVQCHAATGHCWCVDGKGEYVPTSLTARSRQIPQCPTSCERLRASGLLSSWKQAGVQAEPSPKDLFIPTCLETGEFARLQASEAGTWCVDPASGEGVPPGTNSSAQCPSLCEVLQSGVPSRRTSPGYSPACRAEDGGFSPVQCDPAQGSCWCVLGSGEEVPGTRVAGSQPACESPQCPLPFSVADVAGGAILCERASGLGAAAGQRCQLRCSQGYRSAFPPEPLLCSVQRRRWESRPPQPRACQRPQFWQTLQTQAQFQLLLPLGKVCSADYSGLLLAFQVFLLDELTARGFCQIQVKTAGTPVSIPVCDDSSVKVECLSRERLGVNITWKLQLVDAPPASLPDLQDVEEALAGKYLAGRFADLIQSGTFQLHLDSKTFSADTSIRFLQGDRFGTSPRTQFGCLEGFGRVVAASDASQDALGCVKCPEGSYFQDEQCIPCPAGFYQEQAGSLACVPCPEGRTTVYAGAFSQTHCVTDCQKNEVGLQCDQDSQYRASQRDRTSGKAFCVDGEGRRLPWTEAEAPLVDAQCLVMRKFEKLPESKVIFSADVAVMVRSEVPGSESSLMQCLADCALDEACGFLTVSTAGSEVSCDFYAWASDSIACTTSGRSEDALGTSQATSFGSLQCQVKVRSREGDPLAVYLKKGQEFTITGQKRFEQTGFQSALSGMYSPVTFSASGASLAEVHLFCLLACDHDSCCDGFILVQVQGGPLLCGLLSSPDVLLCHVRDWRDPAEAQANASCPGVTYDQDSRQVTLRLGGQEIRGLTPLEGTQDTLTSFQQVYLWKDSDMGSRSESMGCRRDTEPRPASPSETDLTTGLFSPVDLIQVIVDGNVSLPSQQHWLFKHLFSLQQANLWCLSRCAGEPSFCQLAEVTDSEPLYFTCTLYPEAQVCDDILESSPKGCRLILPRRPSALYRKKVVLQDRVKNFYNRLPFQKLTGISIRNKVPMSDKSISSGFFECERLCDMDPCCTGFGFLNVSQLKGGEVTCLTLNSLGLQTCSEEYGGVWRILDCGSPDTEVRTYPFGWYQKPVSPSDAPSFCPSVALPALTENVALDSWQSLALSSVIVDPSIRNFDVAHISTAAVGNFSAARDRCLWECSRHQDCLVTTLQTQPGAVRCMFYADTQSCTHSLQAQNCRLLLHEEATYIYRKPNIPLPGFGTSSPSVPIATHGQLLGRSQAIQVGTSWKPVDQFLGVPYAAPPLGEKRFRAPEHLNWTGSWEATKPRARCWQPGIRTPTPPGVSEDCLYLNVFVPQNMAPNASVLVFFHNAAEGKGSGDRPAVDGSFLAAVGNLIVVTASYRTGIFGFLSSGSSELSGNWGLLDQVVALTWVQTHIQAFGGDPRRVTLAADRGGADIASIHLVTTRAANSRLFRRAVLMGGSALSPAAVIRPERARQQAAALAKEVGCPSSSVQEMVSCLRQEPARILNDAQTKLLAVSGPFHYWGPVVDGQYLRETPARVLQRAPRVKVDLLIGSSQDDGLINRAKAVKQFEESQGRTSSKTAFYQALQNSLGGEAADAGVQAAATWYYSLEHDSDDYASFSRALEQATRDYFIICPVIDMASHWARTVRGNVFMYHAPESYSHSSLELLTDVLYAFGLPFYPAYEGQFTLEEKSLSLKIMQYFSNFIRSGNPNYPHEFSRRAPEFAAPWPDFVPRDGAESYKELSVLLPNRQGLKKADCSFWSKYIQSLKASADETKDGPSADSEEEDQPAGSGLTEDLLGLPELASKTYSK

Key:
[1] = target: bovine tyroglobulin (cattle) (UniProt P01267); assay: SPR, bovine tyroglobulin on CM5 chip, lectin as analyte
[2] = target: bovine tyroglobulin (cattle) (UniProt P01267); assay: SPR, bovine tyroglobulin (12,095 RU) on CM5 chip, lectin 100 µg/ml, elution with 0.5 M D-mannose
[3] = target: bovine tyroglobulin (cattle) (UniProt P01267); assay: SPR (Biacore), bovine tyroglobulin immobilised on CM5 chip (12,095 RU), lectin 100 µg/ml in HBS-EP at 5 µl/min
[4] = target: bovine tyroglobulin (cattle) (UniProt P01267); assay: SPR (Biacore), residual lectin on bovine tyroglobulin chip after HBS-EP wash and after 0.5 M D-mannose, relative to amount bound (100 %)

binding [1]: binds
binding [2]: binds
binding [3]: binds
binding [4]: binds
B1: BML-17 (protein)
chain: VIYQDPVTSDMFAKIPMPGHRGPWYVCHSSGDWSRNEPVFGRCAIDAKGMVEAYFPYGGKDIKWPSRWSAVITTGVYWGKYNDWKQADCNGGQQVVDGGRGAVTVRMDGISECKGWTTGKSSHNEVWFGCNGKEVGSWISDTPASDVFPICQEYGAAVKIVHMGRAFN
